Data as given in PMC7819943, “Rice protein-binding microarrays: a tool to detect cis-acting elements near promoter regions in rice”.
The list shows a part of the results.

Chains of the proteins cited; added tags and fusions are not shown.
UniProt Q0JBA9, entry or part of it: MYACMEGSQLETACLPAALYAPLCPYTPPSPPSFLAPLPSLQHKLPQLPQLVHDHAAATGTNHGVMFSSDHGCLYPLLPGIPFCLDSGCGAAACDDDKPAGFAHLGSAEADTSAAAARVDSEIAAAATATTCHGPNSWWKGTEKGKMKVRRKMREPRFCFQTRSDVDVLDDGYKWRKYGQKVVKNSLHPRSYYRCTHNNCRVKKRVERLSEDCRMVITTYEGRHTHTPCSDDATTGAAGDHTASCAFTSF

These sequences were tested against OsWRKY34 (Oryza sativa, UniProt Q0JBA9 1-250) (assay: protein-binding microarray (RPBM); PBS, 2% BSA, 51.3 ng/ul salmon testes DNA, 50 uM zinc acetate, 200 nM TF, 25 C, 1 h; high values mean tight binding). Conditions: protein: recombinant; tags: N-terminal polyhistidine and DsRed monomer fusion (pET32a); label: CyDye5-dUTP incorporated in the synthesized complementary strand; 3' TTTTT single-stranded linker to array surface; dsDNA, one strand shown.
Outline: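 In PBS with 2% BSA, salmon testes DNA and 50 µM zinc acetate, 200 nM protein was incubated on a custom Agilent array at 25 °C for 1 h and then washed off. The array had been made double-stranded by primer extension with Cy5-dUTP and blocked with 2% BSA. The proteins were transcription factors fused N-terminally to polyhistidine and DsRed, expressed in E. coli BL21-CodonPlus and purified on Ni–NTA. The binding signal is per-feature fluorescence intensity (arbitrary units) from an Axon 4000B scanner.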
“CTTCTGGCCTTCTGCTGCTCCGATCTACTACTACTTATTACGGAGTCACCTAGTGCAG” was tested, and the binding signal was 8140 fluorescence intensity (a.u.).
In the case of “GTAGCCCAACACGTCTGTCATACTGTACGGGTATAAATACCGGAGTCACCTAGTGCAG”, the binding signal is reported as 8770 fluorescence intensity (a.u.).
“AAGTCATATCACCTTGTTTTTTATGTTTAAATCACCATTCCGGAGTCACCTAGTGCAG” was tested, and the binding signal was 8270 fluorescence intensity (a.u.).
With “TTTTTGCTAATTTTTCCTTATGTCTTTTTTTTTGCAAATACGGAGTCACCTAGTGCAG” the binding signal was 8040 fluorescence intensity (a.u.).
For “CACGACACACACACACCAGCAACGGGGATTAGAAGTTGACCGGAGTCACCTAGTGCAG”, the binding signal was 10200 fluorescence intensity (a.u.).
“ACACGAACTTTAACCACCTCTAGCTACTTCCTTTTTTTCTCGGAGTCACCTAGTGCAG” was tested, and the binding signal was 11900 fluorescence intensity (a.u.).
For “CCTTTCTTTCCTTTTCTTTACCTCAACACGCCGAGAACGTCGGAGTCACCTAGTGCAG”, the binding signal was 8480 fluorescence intensity (a.u.).
With “GTGCTATTCGTATTACTTTATACCCGTGTAATCAATCACCCGGAGTCACCTAGTGCAG” the binding signal was 12100 fluorescence intensity (a.u.).
With “CGATCTTGCCCTGGTTGGTTGGTGGTGGTGGTGGGTTTTGCGGAGTCACCTAGTGCAG” the binding signal was 37100 fluorescence intensity (a.u.).
In the case of “ATGAGCTGCGCACCTACCCTCTCGTGACCACCGGCTTCAACGGAGTCACCTAGTGCAG”, the binding signal is reported as 8400 fluorescence intensity (a.u.).
In the case of “ACGTGCCCGTGTCACGCTCGCGCCGCGCCCCGCCACGCTCCGGAGTCACCTAGTGCAG”, the binding signal is reported as 9720 fluorescence intensity (a.u.).
For “TTTGTCCTTTCGATTGCAACATATAGAAGTTGAATTTAGTCGGAGTCACCTAGTGCAG”, the binding signal was 8400 fluorescence intensity (a.u.).
In the case of “GGTTTTTTTTCTCTTTTGTACGCGTAGCAATTTTAGCTTTCGGAGTCACCTAGTGCAG”, the binding signal is reported as 8830 fluorescence intensity (a.u.).
“TGTTAGTTAGATCAGGTTAATTATTAACATCACCCATTTCCGGAGTCACCTAGTGCAG” was tested, and the binding signal was 8400 fluorescence intensity (a.u.).
With “GGAGAGATGCCATGCCGCGCTATGTTGTTCAACTTCAAACCGGAGTCACCTAGTGCAG” the binding signal was 8400 fluorescence intensity (a.u.).
With “AAACGATAAAGGTTGTTTCCGTCCGTTTCCGTACCGTTTTCGGAGTCACCTAGTGCAG” the binding signal was 10400 fluorescence intensity (a.u.).
With “AGGTGGAGGTGGGGAGGATGCGGGAGAGGGAGGTGATGATCGGAGTCACCTAGTGCAG” the binding signal was 14000 fluorescence intensity (a.u.).
In the case of “AGAAGCGCATGTAGGGGATGCCCGGGTTGACCGCCTTGCTCGGAGTCACCTAGTGCAG”, the binding signal is reported as 9170 fluorescence intensity (a.u.).
“ATGGTGGTTCTAATTCTGTTGGTTGACTGCTCTCTGAAATCGGAGTCACCTAGTGCAG” was tested, and the binding signal was 13300 fluorescence intensity (a.u.).
“AAAGGTGGTGGTAGGGGATAGATCCGGGGCGGGCGGCATGCGGAGTCACCTAGTGCAG” was tested, and the binding signal was 23400 fluorescence intensity (a.u.).
With “GGTACATGTTCTTATATATTCTGGCGCATTTCGATTCGAGCGGAGTCACCTAGTGCAG” the binding signal was 13900 fluorescence intensity (a.u.).
For “AATTAAACCCAAATCGATCCCTTTTATTTCCTATCTTGCACGGAGTCACCTAGTGCAG”, the binding signal was 10600 fluorescence intensity (a.u.).
“ATTTATGGTTTAGTTCCCAACTTTTTCTTCAAACTTTCAACGGAGTCACCTAGTGCAG” was tested, and the binding signal was 8550 fluorescence intensity (a.u.).
In the case of “CTCGCAATACCACCTTAAGCCCTTGACAAGCTTTTAAAACCGGAGTCACCTAGTGCAG”, the binding signal is reported as 10300 fluorescence intensity (a.u.).
In the case of “CATTCGTAGTGGTCAGTACTCTCCCGTGCACTCCTACTAGCGGAGTCACCTAGTGCAG”, the binding signal is reported as 9070 fluorescence intensity (a.u.).
“GATCACTGTCACAAGTTCGTTCAGCTGCATTTTTCAAAAACGGAGTCACCTAGTGCAG” was tested, and the binding signal was 9890 fluorescence intensity (a.u.).
In the case of “GCATGTATTGATGTTTGTTTGTTAAGAATGAAGTGAGAAACGGAGTCACCTAGTGCAG”, the binding signal is reported as 9140 fluorescence intensity (a.u.).
For “GAGAAATGAATGGACCCAATAGTACGGAGGGGAGGGGAGCCGGAGTCACCTAGTGCAG”, the binding signal was 8770 fluorescence intensity (a.u.).
“CACTCGCATGCGAACGACCGTGCTCTACCTCTTACGCTATCGGAGTCACCTAGTGCAG” was tested, and the binding signal was 10700 fluorescence intensity (a.u.).
In the case of “GGTTTTGCGGTTGAGCGAAACGACCCAATGGGAATCAAGACGGAGTCACCTAGTGCAG”, the binding signal is reported as 60000 fluorescence intensity (a.u.).
With “GGGAAGGAGGGAGTACATGATTAATTGAGTATTAAATGTTCGGAGTCACCTAGTGCAG” the binding signal was 8230 fluorescence intensity (a.u.).
For “CTCCCCTGTCCTCCCCGATTCCCAATCTCGCTCTCAAGTCCGGAGTCACCTAGTGCAG”, the binding signal was 8140 fluorescence intensity (a.u.).
In the case of “ACCACCACCCGTCACCCACCTCCGCGTCCTCGCCGGAGCACGGAGTCACCTAGTGCAG”, the binding signal is reported as 9300 fluorescence intensity (a.u.).
“CACCACATTCTTCCAGGTTCCAATCTTTGATTAGTTGGTTCGGAGTCACCTAGTGCAG” was tested, and the binding signal was 9690 fluorescence intensity (a.u.).
“TCCATCGGTCACCGCCGCCCCGCCCCGTCGCGAGCGACCTCGGAGTCACCTAGTGCAG” was tested, and the binding signal was 9150 fluorescence intensity (a.u.).
“AGCCATTTCTGTTCCACTCAACCTGTTCCTTCTATTCTTTCGGAGTCACCTAGTGCAG” was tested, and the binding signal was 11500 fluorescence intensity (a.u.).
In the case of “TCTCTTCTATCCCTATTCCGTTAGTTGACTGTTAGATTTTCGGAGTCACCTAGTGCAG”, the binding signal is reported as 10700 fluorescence intensity (a.u.).
For “CAAGCTACTAGCTAGCTCCTCACTTCTTCCAGCTTCTTACCGGAGTCACCTAGTGCAG”, the binding signal was 8990 fluorescence intensity (a.u.).
For “CGCCTCCGATGCGCTGCGCCATGATCAACCACCGACTTTTCGGAGTCACCTAGTGCAG”, the binding signal was 12600 fluorescence intensity (a.u.).
In the case of “ATTGGTTGGGAATGTGATGTTATTAGAAATGTTATATTTTCGGAGTCACCTAGTGCAG”, the binding signal is reported as 8300 fluorescence intensity (a.u.).
With “AACCACCTTTGTTTTGGGGTCTGGCTAAACCGTATGGTCACGGAGTCACCTAGTGCAG” the binding signal was 8890 fluorescence intensity (a.u.).
In the case of “ATTCCGGGCTGTAAATTCGGTGGGCTTGGTGTCTAACAACCGGAGTCACCTAGTGCAG”, the binding signal is reported as 8100 fluorescence intensity (a.u.).
In the case of “CTCGAGTGTCTCCCGTACGTCTCGCCTCGCCTGCGCCGATCGGAGTCACCTAGTGCAG”, the binding signal is reported as 9910 fluorescence intensity (a.u.).
For “TCGCTCGCCTTCTCGGTTTCCTTCTATCCTTCTCCTCGCGCGGAGTCACCTAGTGCAG”, the binding signal was 15200 fluorescence intensity (a.u.).
For “TTGCCACGTCCCGCTTACTGTCCTGGCCCACCTAAATGTGCGGAGTCACCTAGTGCAG”, the binding signal was 9740 fluorescence intensity (a.u.).
With “TACCTTTCACAACCTCGACTATCATCTTGATCCGACTCGACGGAGTCACCTAGTGCAG” the binding signal was 9770 fluorescence intensity (a.u.).
In the case of “AAAAGAAACAACCAACCAGCGCCTTACCCACACGCCAAGTCGGAGTCACCTAGTGCAG”, the binding signal is reported as 10200 fluorescence intensity (a.u.).
With “GAACGGAACCGCGACAAGGTTTGACCATTTGAATGTATTTCGGAGTCACCTAGTGCAG” the binding signal was 9060 fluorescence intensity (a.u.).
“ACCTGCAACAGTACTCCACCTTCTCTCATATCACCACAGTCGGAGTCACCTAGTGCAG” was tested, and the binding signal was 8420 fluorescence intensity (a.u.).
For “GTGTGTCTTCTAAGCCGCGTTCTCCATCATGGCCCTGAACCGGAGTCACCTAGTGCAG”, the binding signal was 8440 fluorescence intensity (a.u.).
For “AGTTAGCTAGCTCTTGCTTCTATCTCGTGCATAATTTAGACGGAGTCACCTAGTGCAG”, the binding signal was 8670 fluorescence intensity (a.u.).
In the case of “TGCACTATTCACGTTCAACGTTTGACCGTTCGTTTTATTTCGGAGTCACCTAGTGCAG”, the binding signal is reported as 12700 fluorescence intensity (a.u.).
In the case of “AATAGTTGCCACTGTTGCACTAATTGTTGTCTTATTTCTTCGGAGTCACCTAGTGCAG”, the binding signal is reported as 8040 fluorescence intensity (a.u.).
For “CTTCCTCACTTTTTCTTTCTTTCTTCCTCTCCAAGAAGACCGGAGTCACCTAGTGCAG”, the binding signal was 8180 fluorescence intensity (a.u.).
